Measurements reported in PubChem BioAssay AID743454 (Peter MacCallum Cancer Centre, 2014)
Aim: 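Search for knock-downs that restore vorinostat killing in resistant colon cancer cells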 (primary screen). Cell system: human HCT116-VR colon cancer cells, selected for vorinostat resistance. Reagent: siRNA pool against human genes, 40 nM siRNA pool. Duration: vorinostat for 24 h, read-out about 72 h after transfection. Treatment: vorinostat at 2.5 µM final. Detection: 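Cell viability by CellTiter-Fluor and caspase 3/7 activity by luminescence, each scaled to mock wells per plate, duplicates averaged, then robust z-scored over all plates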. Reading the numbers: viability robust z-score: higher = more viable cells than screen typical; caspase robust z-score: higher = more caspase 3/7 activity than screen typical. Call rule: 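Hits are knock-downs in viability class RV1/RV2 or caspase class CA1/CA2, excluding ones that killed cells in the no-drug cell-count arm; hits then retested with single siRNAs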.
The deposit covers about 18,000 reagents; this is a random part of them. 450 of all reagents (2.5%) count as active. 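Single biological run; no consistent viability z cut-off exists, so the class columns, not z-scores, define the calls.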

gene | viability hit class | caspase hit class | viability robust z-score | caspase robust z-score | call
CLCN1 | no change | no change | -1.25 | -0.22 | inactive
OPLAH | no change | no change | 0.5 | 3.94 | inactive
GORAB | no change | no change | -1.6 | 1.74 | inactive
TIAM1 | no change | no change | 0.06 | -0.92 | inactive
CDH2 | no change | no change | -0.06 | -0.1 | inactive
AUP1 | no change | no change | 0.93 | -0.94 | inactive
SLC26A10P | no change | no change | 0.02 | -0.29 | inactive
PCDHGC5 | no change | no change | 0.18 | 2.3 | inactive
SEC16B | no change | no change | 0.56 | -0.73 | inactive
SAXO6 | no change | no change | 1.37 | 0.03 | inactive
CCDC28A | no change | no change | 0.08 | 1.25 | inactive
OR5M8 | no change | no change | 0.3 | 0.48 | inactive
TTF2 | no change | no change | 1 | -0.16 | inactive
PLA2G4A | no change | CA2 (caspase activation) | -0.78 | 5.14 | active
SPRY3 | no change | no change | 1.38 | 0.02 | inactive
ITGB3BP | no change | no change | 0.28 | -0.26 | inactive
ZDHHC22 | no change | no change | 0.36 | 1.1 | inactive
ZNF175 | no change | no change | 1.26 | 1.38 | inactive
ENGASE | no change | no change | -0.3 | 3.02 | inactive
TIMM50 | no change | no change | 0.66 | 0.99 | inactive
GLRA1 | no change | no change | -0.34 | -0.36 | inactive
CNTNAP4 | no change | no change | 0.08 | -0.86 | inactive
RPS6KA5 | no change | no change | -0.88 | -1.36 | inactive

Looked up above:
Result for TIAM1 in “caspase hit class”: no change
For “caspase robust z-score”, TTF2 is entered as -0.16
